Assay results taken from paper PMC6692315.
No constants are given. Whether binding was seen depends on the method and setting. In cells and extracts the contact can be indirect. Some entries that bind do so weakly or less than the wild type. Sequences can lack the tags named with a protein. Values belong to the binder of their own block, whether it stands above or below them.

Amino acid sequences for entries named in this document (tags omitted).
UniProt Q8TEB1: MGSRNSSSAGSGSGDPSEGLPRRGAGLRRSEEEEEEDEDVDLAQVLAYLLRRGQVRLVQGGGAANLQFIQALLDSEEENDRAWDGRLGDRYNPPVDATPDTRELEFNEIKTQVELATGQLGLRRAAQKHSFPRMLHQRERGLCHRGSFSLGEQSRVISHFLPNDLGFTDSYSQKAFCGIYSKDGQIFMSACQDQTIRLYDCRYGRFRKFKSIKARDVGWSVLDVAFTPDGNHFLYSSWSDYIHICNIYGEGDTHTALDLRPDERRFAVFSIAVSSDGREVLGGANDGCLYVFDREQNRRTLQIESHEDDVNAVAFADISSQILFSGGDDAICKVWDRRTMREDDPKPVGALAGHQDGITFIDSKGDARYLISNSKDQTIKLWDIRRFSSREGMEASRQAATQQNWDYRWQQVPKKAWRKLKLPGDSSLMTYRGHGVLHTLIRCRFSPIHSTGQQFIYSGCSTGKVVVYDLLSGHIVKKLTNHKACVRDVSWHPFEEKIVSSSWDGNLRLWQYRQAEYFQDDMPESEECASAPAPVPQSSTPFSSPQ

Experiments:
[1] = biological target: T1, C. elegans GEN-1-3XFLAG (C. elegans) (UniProt Q22418); assay: co-IP; reciprocal: FLAG-tagged protein immunoprecipitated with magnetic FLAG-M2 beads (Sigma), 2 hours at 4 degrees Celsius, from transfected HEK-293T lysate; 0.5% CHAPS buffer (10 mM Tris/Cl pH 7.5, 150 mM NaCl, 0.5 mM EDTA); three washes; Western blot
T1 sequence: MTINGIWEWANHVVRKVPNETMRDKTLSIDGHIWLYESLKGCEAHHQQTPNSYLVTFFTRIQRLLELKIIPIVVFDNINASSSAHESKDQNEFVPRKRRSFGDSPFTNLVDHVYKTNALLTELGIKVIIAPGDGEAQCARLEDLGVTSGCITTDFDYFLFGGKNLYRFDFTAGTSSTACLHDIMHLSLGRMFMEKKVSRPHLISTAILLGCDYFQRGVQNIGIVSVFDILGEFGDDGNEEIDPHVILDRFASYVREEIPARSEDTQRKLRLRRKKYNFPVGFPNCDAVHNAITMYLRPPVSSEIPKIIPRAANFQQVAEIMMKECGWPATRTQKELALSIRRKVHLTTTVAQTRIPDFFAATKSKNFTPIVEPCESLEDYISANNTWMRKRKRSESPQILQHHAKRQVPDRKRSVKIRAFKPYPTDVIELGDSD

[2] = biological target: GFP-WDR23 isoform I (human) (human) (UniProt Q8TEB1); assay: co-IP; GFP-tagged protein immunoprecipitated with GFP trap magnetic agarose beads (Chromotek) from transfected HEK-293T lysate; 0.5% CHAPS buffer (10 mM Tris/Cl pH 7.5, 150 mM NaCl, 0.5 mM EDTA); Western blot
[3] = biological target: T2, GFP-WDR-23A (C. elegans WDR-23 isoform A) (C. elegans) (UniProt P90794); assay: as above
T2 sequence: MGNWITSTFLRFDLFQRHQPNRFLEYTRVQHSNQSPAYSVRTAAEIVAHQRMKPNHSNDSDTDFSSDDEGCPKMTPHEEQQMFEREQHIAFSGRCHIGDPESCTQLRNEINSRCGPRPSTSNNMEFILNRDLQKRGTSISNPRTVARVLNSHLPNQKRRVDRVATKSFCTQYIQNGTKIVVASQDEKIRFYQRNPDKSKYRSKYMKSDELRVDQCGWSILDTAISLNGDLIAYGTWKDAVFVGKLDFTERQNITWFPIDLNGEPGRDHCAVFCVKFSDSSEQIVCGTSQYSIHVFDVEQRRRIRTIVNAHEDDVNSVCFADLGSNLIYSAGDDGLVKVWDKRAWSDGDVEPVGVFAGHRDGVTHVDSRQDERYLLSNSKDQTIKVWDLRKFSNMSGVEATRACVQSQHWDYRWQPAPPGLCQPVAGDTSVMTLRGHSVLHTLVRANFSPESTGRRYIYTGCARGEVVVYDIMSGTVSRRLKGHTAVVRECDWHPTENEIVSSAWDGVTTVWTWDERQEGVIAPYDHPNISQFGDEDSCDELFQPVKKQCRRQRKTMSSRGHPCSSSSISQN

- binding [1]: binds
B1: GFP-WDR-23A (C. elegans WDR-23 isoform A) (protein, UniProt P90794 1-571)
chain: T2 sequence

- binding [2]: binds
B2: Human 3XFLAG:GEN1 (protein, UniProt Q17RS7 1-908)
chain: MGVNDLWQILEPVKQHIPLRNLGGKTIAVDLSLWVCEAQTVKKMMGSVMKPHLRNLFFRISYLTQMDVKLVFVMEGEPPKLKADVISKRNQSRYGSSGKSWSQKTGRSHFKSVLRECLHMLECLGIPWVQAAGEAEAMCAYLNAGGHVDGCLTNDGDTFLYGAQTVYRNFTMNTKDPHVDCYTMSSIKSKLGLDRDALVGLAILLGCDYLPKGVPGVGKEQALKLIQILKGQSLLQRFNRWNETSCNSSPQLLVTKKLAHCSVCSHPGSPKDHERNGCRLCKSDKYCEPHDYEYCCPCEWHRTEHDRQLSEVENNIKKKACCCEGFPFHEVIQEFLLNKDKLVKVIRYQRPDLLLFQRFTLEKMEWPNHYACEKLLVLLTHYDMIERKLGSRNSNQLQPIRIVKTRIRNGVHCFEIEWEKPEHYAMEDKQHGEFALLTIEEESLFEAAYPEIVAVYQKQKLEIKGKKQKRIKPKENNLPEPDEVMSFQSHMTLKPTCEIFHKQNSKLNSGISPDPTLPQESISASLNSLLLPKNTPCLNAQEQFMSSLRPLAIQQIKAVSKSLISESSQPNTSSHNISVIADLHLSTIDWEGTSFSNSPAIQRNTFSHDLKSEVESELSAIPDGFENIPEQLSCESERYTANIKKVLDEDSDGISPEEHLLSGITDLCLQDLPLKERIFTKLSYPQDNLQPDVNLKTLSILSVKESCIANSGSDCTSHLSKDLPGIPLQNESRDSKILKGDQLLQEDYKVNTSVPYSVSNTVVKTCNVRPPNTALDHSRKVDMQTTRKILMKKSVCLDRHSSDEQSAPVFGKAKYTTQRMKHSSQKHNSSHFKESGHNKLSSPKIHIKETEQCVRSYETAENEESCFPDSTKSSLSSLQCHKKENNSGTCLDSPLPLRQRLKLRFQST

- binding [3]: binds
B3: C. elegans GEN-1-3XFLAG (protein, UniProt Q22418 1-434)
chain: T1 sequence
